Experimental data taken from the supplement of paper PMC11348887.
Structures can show the parent of a compound that is named as a salt. Some of the results follow. Most values lie at the level of the controls, where differences are scatter. Where a SMILES comes first, the peptide text is derived from it. [ ]: non-standard residue; d: D form. d2Nal = N[C@H](Cc1ccc2ccccc2c1)C(=O)O

Legend:
Settings in all cases: 5 µM; treatment: days 7-14 after plating, readout day 21
[1] = system: hPSC-derived cortical neurons (WA09); test: nucleus area z-score vs screen plate; higher = larger nuclei (more mature)
[2] = system: hPSC-derived cortical neurons (WA09); test: total neurite length per nucleus (MAP2) z-score; higher = more neurite growth
[3] = system: hPSC-derived cortical neurons (WA09); test: nucleus roundness z-score vs screen plate; higher = rounder nuclei (more mature)
[4] = system: hPSC-derived cortical neurons (WA09); test: KCl-induced FOS+/EGR-1+ double-positive nuclei fraction z-score (KCl minus unstimulated); higher = stronger activity-induced IEG response

Row | SMILES | nucleus area z-score [1] | total neurite length per nucleus (z-score) [2] | nucleus roundness z-score [3] | KCl-induced FOS+/EGR-1+ double-positive nuclei fraction z-score [4]
1 | CCc1cnn2c(NCc3ccc[n+]([O-])c3)cc(N3CCCC[C@H]3CCO)nc12 | -14.4 | -5.12 | -3.17 | 3.35
2 | CNC(=O)[C@@H](NC(=O)[C@H](CC(C)C)[C@H](O)C(=O)NO)C(C)(C)C [Marimastat(BB-2516)] | 0.442 | -0.381 | 1 | 0.806
3 | COc1cc2c(Oc3ccc4[nH]c(C)cc4c3F)ncnc2cc1OCCCN1CCCC1 [Cediranib (AZD2171)] | -2.3 | -1.03 | -0.338 | -0.307
4 | Nc1c(Br)cc(Br)cc1CN[C@H]1CC[C@H](O)CC1 [Ambroxol HCl] | 0.642 | -1.57 | -1.23 | 0.348
5 | COC(=O)N[C@H](C(=O)N1CCC[C@H]1c1ncc(-c2ccc(-c3ccc(-c4cnc([C@@H]5CCCN5C(=O)[C@@H](NC(=O)OC)C(C)C)[nH]4)cc3)cc2)[nH]1)C(C)C | 0.176 | 0.347 | -0.123 | 0.948
6 | C[C@H]1c2cccc(O)c2C(=O)C2=C(O)[C@]3(O)C(=O)C(C(N)=O)=C(O)[C@@H](N(C)C)[C@@H]3[C@@H](O)[C@@H]21 [Doxycycline Hyclate] | 2.8 | -1.3 | -1.38 | -1.14
7 | CC(=O)Nc1ccccc1 [Acetanilide] | 0.636 | 0.0561 | 0.547 | 0.028
8 | CC(C)n1nc(-c2ccc3oc(N)nc3c2)c2c(N)ncnc21 | -4.26 | -3.29 | -1.97 | -0.91
9 | CN1CCN(c2cccc(Nc3nc4c(-c5ccc(S(C)(=O)=O)cc5)cccn4n3)c2)CC1 | 0.346 | 0.819 | -0.856 | -0.0569
10 | Cn1c(=O)c2c(ncn2CC2OCCO2)n(C)c1=O [Doxofylline] | 0.198 | 0.495 | -1.02 | -0.771
11 | COc1cc(OC2CCN(C)CC2)ccc1Nc1ncc2c(n1)n(C1CCCC1)c(=O)n2C | -1.1 | -0.322 | 0.177 | -1.49
12 | C[C@]12CC[C@@H]3c4ccc(O)cc4CC[C@H]3[C@@H]1CC[C@@H]2O [Estradiol] | -0.0818 | -0.022 | 0.657 | -0.665
13 | CCCCCCCCOc1ccccc1C(=O)Nc1ccc(C(=O)OCC[N+](C)(CC)CC)cc1 [Otilonium Bromide] | -3.38 | -0.739 | -5.58 | -1.04
14 | COCCOc1ccc2c(c1)ncn2-c1ccc2cccc(N3CCC(N)CC3)c2n1 | 0.498 | -1.26 | -0.272 | -1.21
15 | Nc1nc2c(cnn2CCc2ccccc2)c2nc(-c3ccco3)nn12 | 2.04 | 0.0646 | -1.22 | 0.303
16 | CCC1C/C(=C\c2cccnc2)C(=O)/C(=C/c2cccnc2)C1 (stereo not given) | -16.9 | -6.35 | -10.1 | -0.812
17 | CN(C)CC(c1ccc(O)cc1)C1(O)CCCCC1 (stereo not given) [Desvenlafaxine Succinate] | 0.879 | -0.569 | -0.472 | -0.0728
18 | Nc1nc(=O)n([C@@H]2CS[C@H](CO)O2)cc1F [Emtricitabine] | -0.416 | 0.349 | 0.713 | 1.15
19 | Cc1cnc(-c2cc(N3CCN(C(=O)CCS(C)(=O)=O)CC3)ncc2Cl)c(C)c1 | 0.3 | 0.114 | 0.159 | 1.94
20 | C[C@H](NC(=O)[C@@H](Cc1ccc2ccccc2c1)NC(=O)[C@@H](C)N)C(=O)N[C@@H](Cc1c[nH]c2ccccc12)C(=O)N[C@H](Cc1ccccc1)C(=O)N[C@@H](CCCCN)C(N)=O (H-[dA][d2Nal]AW[dF]K-NH2) | -0.687 | -0.233 | 0.832 | -0.839
21 | COc1c2occc2cc2ccc(=O)oc12 [Methoxsalen] | -0.388 | 0.513 | -1.7 | -0.333
22 | O=c1cc(-c2ccccc2)oc2cc(O)cc(O)c12 [Chrysin] | -0.318 | 0.399 | 0.576 | 0.126
23 | CCOC(=O)[C@H](CCc1ccccc1)N[C@H]1CCc2ccccc2N(CC(=O)O)C1=O [Benazepril HCl] | -0.405 | 1.01 | 0.368 | 2.89
24 | CC/C(=C(\c1ccccc1)c1ccc(OCCN(C)C)cc1)c1ccccc1 [Tamoxifen Citrate] | -2.7 | -1.85 | -1.47 | -0.0725
25 | CN[C@@H](C)C(=O)N[C@H](C(=O)N1CCC[C@H]1c1nc(C(=O)c2ccc(F)cc2)cs1)C1CCCCC1 | -0.291 | 0.237 | 0.152 | -1.44
26 | O=C1NC(=O)C(=Cc2ccc(-c3ccc(F)cc3)o2)S1 (stereo in doubt) | -0.0673 | -0.626 | -0.172 | -0.698
27 | COC(=O)C1=C(C#N)NC(C)=C(C(=O)OC(C)C)C1c1cccc([N+](=O)[O-])c1 (stereo not given) [Nilvadipine] | -1.36 | -0.656 | 0.834 | 1.43
28 | CC(C)N(CCCNC(=O)Nc1ccc(C(C)(C)C)cc1)C[C@H]1O[C@@H](n2ccc3c(N)ncnc32)[C@H](O)[C@@H]1O | 0.0568 | 0.924 | 0.695 | 0.613

As entered above.
KCl-induced FOS+/EGR-1+ double-positive nuclei fraction z-score [4] with CCc1cnn2c(NCc3ccc[n+]([O-])c3)cc(N3CCCC[C@H]3CCO)nc12 reads 3.35
nucleus roundness z-score [3] with O=C1NC(=O)C(=Cc2ccc(-c3ccc(F)cc3)o2)S1 (stereo in doubt) reads -0.172
total neurite length per nucleus (z-score) [2] with COc1c2occc2cc2ccc(=O)oc12 [Methoxsalen] reads 0.513
total neurite length per nucleus (z-score) [2] with CN1CCN(c2cccc(Nc3nc4c(-c5ccc(S(C)(=O)=O)cc5)cccn4n3)c2)CC1 reads 0.819

(list continues)

Row | SMILES | nucleus area z-score [1] | total neurite length per nucleus (z-score) [2] | nucleus roundness z-score [3] | KCl-induced FOS+/EGR-1+ double-positive nuclei fraction z-score [4]
29 | CC(C)(Oc1ccc(Cl)cc1)C(=O)OCCOC(=O)c1cccnc1 [Etofibrate] | -0.598 | 0.334 | 0.144 | 0.0819
30 | CC(C)(F)C[C@H](N[C@@H](c1ccc(-c2ccc(S(C)(=O)=O)cc2)cc1)C(F)(F)F)C(=O)NC1(C#N)CC1 [Odanacatib (MK-0822)] | 0.288 | 0.347 | 0.926 | 0.743
31 | COc1ccc(S(=O)(=O)N(C(C)=O)c2ccccc2/C=C/c2cc[n+]([O-])cc2)cc1 | -5.06 | -2.5 | 1.01 | -1.4
32 | C[C@@H]1CN(c2c(F)c(N)c3c(=O)c(C(=O)O)cn(C4CC4)c3c2F)C[C@H](C)N1 [Sparfloxacin] | 0.933 | 0.361 | -0.076 | 0.26
33 | CC1(C)O[C@@H]2C[C@H]3[C@@H]4C[C@H](F)C5=CC(=O)C=C[C@]5(C)[C@@]4(F)[C@@H](O)C[C@]3(C)[C@]2(C(=O)CO)O1 [Fluocinolone Acetonide] | 1.04 | 0.903 | 0.486 | 0.775
34 | COc1cc2nccc(Oc3ccc(NC(=O)Nc4cc(C)on4)c(Cl)c3)c2cc1OC [Tivozanib (AV-951)] | 0.59 | 1.01 | 0.417 | 0.86
35 | COc1cc(Nc2ncc(F)c(Nc3ccc4c(n3)N(COP(=O)(O)O)C(=O)C(C)(C)O4)n2)cc(OC)c1OC [R788 (Fostamatinib) Disodium] | -0.418 | -0.0747 | -2.07 | -0.252
36 | C[C@H](N[C@@H](CCc1ccccc1)C(=O)O)C(=O)N1CCC[C@H]1C(=O)O [Enalaprilat Dihydrate] | 1.08 | 0.0034 | 0.131 | -0.602
37 | Nc1ncc(-c2ccnc(Nc3ccncc3)n2)c(CC2CC2)n1 | -5.92 | -1.51 | -2.58 | 0.748
38 | O=C1NC(=O)[C@@H](c2cn3c4c(cccc24)CCC3)[C@@H]1c1c[nH]c2ccccc12 [Tivantinib (ARQ 197)] | -3.21 | 0.451 | -0.49 | -1.17
39 | CC(ONC(=O)c1cc(C(F)(F)F)cc(C(F)(F)F)c1)C(=O)Nc1ccc(Cl)cc1 (stereo not given) | 0.196 | 0.927 | 0.66 | 0.544
40 | O=c1ccc2ccc(OCCCCN3CCN(c4cccc5sccc45)CC3)cc2[nH]1 [Brexpiprazole] | 0.515 | -0.0637 | -0.678 | 0.209
41 | CCOC(=O)[C@H](CCc1ccccc1)N[C@@H](C)C(=O)N1CCC[C@H]1C(=O)O [Enalapril Maleate] | -0.81 | 1.34 | 0.807 | 0.401
42 | CS(=O)(=O)c1ccc(C(=O)Nc2ccc(Cl)c(-c3ccccn3)c2)c(Cl)c1 [Vismodegib (GDC-0449)] | 0.419 | 0.405 | 0.447 | 1.53
43 | COc1ccc(CC2c3cc(OC)c(OC)cc3CC[N+]2(C)CCC(=O)OCCCCCOC(=O)CC[N+]2(C)CCc3cc(OC)c(OC)cc3C2Cc2ccc(OC)c(OC)c2)cc1OC (stereo not given) [Atracurium Besylate] | 0.652 | 0.36 | 1.61 | 0.782
44 | O=C1Cc2c([nH]c3ccc(Br)cc23)-c2ccccc2N1 [Kenpaullone] | 0.273 | 0.216 | 0.882 | 1.59
45 | CCCC(=O)Nc1cccc(NC(=O)c2ccccc2Br)c1 | 0.654 | -0.0952 | -0.174 | 1.85
46 | CCCCOc1cc(C(=O)NCCN(CC)CC)c2ccccc2n1 [Dibucaine HCl] | -0.385 | -0.0878 | 0.201 | 0.804
47 | N[C@@H](Cc1cc(I)c(Oc2cc(I)c(O)c(I)c2)c(I)c1)C(=O)O [L-Thyroxine] | 1.85 | -0.309 | 0.941 | 0.0531
48 | Clc1ccc(COC(Cn2ccnc2)c2ccc(Cl)cc2Cl)c(Cl)c1 (stereo not given) [Miconazole] | -0.707 | -0.459 | -0.764 | -0.74
49 | Cc1nc2ccc(-n3ncc(C(=O)c4cc5ccccc5[nH]4)c3N)cc2[nH]1 | 1.11 | 0.553 | 1.32 | 0.894
50 | Cc1nc(N(C)C(=O)Cc2ccc(-c3ccccn3)cc2)sc1S(N)(=O)=O [Pritelivir (BAY 57-1293)] | 0.41 | 1.52 | 0.932 | 0.801
51 | COc1ccc(C(=O)CC(=O)c2ccc(C(C)(C)C)cc2)cc1 [Avobenzone] | 0.164 | 0.979 | 0.479 | 1.71
52 | CC(C)(C)CC(C)(C)c1ccc(O)c(Cc2ccc(Cl)cc2Cl)c1 [Clofoctol] | -1.16 | 0.233 | 0.941 | 1.47
53 | Cc1nc(-c2cccnc2)sc1C(=O)Nc1ccccc1-c1cn2c(CN3CCOCC3)csc2n1 | -0.429 | -0.502 | -0.409 | 0.399
54 | C[C@@H]1CN(CC(=O)Nc2ccc3c(c2)Cc2cccc(-c4cc(=O)cc(N5CCOCC5)o4)c2S3)C[C@H](C)O1 | -0.763 | -0.494 | -0.276 | -0.2
55 | Cc1ccc(-n2nc(C(C)(C)C)cc2NC(=O)NCc2cc(F)ccc2Oc2ccc3c(cnn3CCO)c2)cc1 [Pexmetinib (ARRY-614)] | -0.308 | 0.713 | 0.623 | -0.524
